# Assay results taken from the supplement of paper PMC12823440, “Inhibitors supercharge kinase turnover through native proteolytic circuits” (Nature, 2025).
# Chains of the proteins cited; added tags and fusions are not shown. Lines headed by an entry give the natural chain unless they say otherwise; changes in a name come on top.
# UniProt P29317, whole entry: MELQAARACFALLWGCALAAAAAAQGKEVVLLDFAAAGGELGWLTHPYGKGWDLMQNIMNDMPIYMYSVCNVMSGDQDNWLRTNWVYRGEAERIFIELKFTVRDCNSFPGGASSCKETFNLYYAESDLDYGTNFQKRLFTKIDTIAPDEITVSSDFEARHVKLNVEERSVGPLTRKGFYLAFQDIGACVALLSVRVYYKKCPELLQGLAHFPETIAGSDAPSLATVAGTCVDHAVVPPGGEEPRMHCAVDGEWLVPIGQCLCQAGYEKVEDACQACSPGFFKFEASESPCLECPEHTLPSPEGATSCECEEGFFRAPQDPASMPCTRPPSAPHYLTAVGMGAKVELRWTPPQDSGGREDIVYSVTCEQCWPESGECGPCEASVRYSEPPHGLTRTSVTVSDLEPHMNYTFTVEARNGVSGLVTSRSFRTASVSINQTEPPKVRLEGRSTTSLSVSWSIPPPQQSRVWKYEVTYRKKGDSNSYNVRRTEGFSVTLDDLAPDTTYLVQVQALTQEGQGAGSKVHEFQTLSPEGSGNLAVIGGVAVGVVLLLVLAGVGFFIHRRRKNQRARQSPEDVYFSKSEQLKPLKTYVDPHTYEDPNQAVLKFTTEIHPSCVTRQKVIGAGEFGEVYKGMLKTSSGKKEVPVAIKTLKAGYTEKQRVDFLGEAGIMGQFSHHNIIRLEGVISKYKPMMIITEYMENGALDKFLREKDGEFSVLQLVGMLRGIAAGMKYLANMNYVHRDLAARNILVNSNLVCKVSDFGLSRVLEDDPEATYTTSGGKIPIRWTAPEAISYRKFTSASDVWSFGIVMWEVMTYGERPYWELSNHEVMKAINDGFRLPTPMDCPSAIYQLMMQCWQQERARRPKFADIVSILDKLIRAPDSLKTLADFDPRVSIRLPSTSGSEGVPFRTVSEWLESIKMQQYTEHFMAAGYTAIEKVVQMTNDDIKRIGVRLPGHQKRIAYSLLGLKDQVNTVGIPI
# UniProt P21860, whole entry: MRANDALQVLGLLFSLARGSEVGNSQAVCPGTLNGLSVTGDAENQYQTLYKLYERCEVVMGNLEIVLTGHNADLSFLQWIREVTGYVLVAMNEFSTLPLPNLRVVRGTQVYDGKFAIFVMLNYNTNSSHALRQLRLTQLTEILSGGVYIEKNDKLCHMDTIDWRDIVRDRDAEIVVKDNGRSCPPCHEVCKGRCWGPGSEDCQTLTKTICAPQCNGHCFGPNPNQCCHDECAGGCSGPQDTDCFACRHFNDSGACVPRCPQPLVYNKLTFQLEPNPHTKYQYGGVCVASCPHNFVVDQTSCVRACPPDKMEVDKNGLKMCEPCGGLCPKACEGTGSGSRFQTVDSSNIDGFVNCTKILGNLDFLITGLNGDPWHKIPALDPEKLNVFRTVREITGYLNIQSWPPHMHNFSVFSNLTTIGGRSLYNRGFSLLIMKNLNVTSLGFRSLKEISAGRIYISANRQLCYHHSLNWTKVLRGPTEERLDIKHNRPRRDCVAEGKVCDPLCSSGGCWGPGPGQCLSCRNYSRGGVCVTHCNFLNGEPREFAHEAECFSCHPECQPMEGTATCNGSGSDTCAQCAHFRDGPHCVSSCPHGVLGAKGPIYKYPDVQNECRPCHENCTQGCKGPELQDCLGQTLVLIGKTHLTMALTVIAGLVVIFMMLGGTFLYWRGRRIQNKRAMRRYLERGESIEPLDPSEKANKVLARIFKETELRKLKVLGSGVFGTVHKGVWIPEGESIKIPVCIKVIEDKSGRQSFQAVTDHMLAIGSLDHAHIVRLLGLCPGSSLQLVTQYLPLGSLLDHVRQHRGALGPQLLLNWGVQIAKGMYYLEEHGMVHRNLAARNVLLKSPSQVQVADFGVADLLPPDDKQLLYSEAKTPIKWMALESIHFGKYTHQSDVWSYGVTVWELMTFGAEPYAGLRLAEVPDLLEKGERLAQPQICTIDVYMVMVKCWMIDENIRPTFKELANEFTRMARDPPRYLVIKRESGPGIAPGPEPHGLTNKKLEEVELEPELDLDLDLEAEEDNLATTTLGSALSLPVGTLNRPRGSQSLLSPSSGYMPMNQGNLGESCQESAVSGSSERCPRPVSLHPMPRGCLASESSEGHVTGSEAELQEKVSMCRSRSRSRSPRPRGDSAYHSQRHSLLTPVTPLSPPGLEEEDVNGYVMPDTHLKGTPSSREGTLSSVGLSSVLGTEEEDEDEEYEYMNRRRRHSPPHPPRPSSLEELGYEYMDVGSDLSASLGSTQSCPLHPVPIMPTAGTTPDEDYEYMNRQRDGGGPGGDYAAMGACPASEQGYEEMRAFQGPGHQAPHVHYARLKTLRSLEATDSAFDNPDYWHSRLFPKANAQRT
# UniProt Q15303, whole entry R711C: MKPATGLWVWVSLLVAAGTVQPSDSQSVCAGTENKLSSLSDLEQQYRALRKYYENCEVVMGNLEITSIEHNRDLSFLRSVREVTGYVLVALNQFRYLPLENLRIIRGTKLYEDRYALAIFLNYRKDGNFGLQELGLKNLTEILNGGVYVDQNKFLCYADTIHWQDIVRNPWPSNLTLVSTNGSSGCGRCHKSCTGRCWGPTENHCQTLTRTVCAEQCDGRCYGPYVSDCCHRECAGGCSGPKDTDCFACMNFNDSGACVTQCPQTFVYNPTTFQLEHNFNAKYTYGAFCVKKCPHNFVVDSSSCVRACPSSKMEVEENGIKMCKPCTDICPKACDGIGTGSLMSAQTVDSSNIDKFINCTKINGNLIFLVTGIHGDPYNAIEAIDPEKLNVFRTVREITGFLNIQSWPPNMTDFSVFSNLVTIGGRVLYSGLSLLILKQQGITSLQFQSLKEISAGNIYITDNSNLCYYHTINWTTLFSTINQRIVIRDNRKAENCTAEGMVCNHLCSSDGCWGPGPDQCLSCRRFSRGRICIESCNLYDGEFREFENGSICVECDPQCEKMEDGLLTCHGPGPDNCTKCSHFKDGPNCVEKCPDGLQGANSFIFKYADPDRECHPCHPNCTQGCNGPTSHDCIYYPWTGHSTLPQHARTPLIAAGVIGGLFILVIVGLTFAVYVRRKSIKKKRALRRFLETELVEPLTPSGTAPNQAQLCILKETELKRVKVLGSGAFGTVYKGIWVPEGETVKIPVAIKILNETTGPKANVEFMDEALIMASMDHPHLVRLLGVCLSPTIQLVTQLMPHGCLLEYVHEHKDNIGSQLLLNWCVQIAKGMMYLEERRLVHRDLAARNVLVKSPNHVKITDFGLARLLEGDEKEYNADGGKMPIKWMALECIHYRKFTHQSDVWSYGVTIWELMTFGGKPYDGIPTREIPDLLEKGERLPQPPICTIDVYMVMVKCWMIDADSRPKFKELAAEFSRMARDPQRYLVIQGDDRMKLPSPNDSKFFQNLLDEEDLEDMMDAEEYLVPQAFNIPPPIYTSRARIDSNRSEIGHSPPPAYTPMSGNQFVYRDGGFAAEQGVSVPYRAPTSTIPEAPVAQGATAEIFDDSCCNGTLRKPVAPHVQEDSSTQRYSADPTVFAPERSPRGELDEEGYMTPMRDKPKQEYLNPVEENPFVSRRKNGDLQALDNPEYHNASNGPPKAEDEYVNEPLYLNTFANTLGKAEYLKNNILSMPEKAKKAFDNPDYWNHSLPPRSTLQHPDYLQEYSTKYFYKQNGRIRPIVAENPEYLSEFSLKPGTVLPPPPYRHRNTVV
# UniProt O75460: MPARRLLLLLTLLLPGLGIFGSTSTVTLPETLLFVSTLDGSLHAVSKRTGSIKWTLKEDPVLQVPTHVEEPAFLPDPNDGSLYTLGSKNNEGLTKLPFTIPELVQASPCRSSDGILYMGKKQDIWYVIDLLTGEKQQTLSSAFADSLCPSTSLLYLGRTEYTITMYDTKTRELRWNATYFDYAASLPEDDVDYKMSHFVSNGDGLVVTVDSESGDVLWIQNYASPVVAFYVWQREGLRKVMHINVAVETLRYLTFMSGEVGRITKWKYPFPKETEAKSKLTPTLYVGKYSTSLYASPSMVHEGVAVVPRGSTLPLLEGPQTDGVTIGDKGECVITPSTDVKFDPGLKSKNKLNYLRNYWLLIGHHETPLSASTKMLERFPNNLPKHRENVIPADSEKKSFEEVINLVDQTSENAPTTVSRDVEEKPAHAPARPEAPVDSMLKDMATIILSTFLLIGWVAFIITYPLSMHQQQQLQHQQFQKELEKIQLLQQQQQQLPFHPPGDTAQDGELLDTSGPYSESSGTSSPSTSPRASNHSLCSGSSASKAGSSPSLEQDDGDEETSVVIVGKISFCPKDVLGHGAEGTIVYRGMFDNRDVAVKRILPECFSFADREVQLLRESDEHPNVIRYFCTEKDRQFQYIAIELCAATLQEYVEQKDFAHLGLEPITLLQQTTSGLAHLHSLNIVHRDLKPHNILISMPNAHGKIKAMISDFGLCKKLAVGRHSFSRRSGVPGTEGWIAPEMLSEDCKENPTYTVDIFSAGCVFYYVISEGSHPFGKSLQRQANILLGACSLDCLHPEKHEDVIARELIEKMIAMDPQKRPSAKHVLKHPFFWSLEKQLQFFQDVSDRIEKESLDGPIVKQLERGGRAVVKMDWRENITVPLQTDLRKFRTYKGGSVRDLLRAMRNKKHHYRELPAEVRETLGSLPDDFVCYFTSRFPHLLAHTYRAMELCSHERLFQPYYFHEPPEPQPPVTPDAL
# UniProt P11362, whole entry, looked up: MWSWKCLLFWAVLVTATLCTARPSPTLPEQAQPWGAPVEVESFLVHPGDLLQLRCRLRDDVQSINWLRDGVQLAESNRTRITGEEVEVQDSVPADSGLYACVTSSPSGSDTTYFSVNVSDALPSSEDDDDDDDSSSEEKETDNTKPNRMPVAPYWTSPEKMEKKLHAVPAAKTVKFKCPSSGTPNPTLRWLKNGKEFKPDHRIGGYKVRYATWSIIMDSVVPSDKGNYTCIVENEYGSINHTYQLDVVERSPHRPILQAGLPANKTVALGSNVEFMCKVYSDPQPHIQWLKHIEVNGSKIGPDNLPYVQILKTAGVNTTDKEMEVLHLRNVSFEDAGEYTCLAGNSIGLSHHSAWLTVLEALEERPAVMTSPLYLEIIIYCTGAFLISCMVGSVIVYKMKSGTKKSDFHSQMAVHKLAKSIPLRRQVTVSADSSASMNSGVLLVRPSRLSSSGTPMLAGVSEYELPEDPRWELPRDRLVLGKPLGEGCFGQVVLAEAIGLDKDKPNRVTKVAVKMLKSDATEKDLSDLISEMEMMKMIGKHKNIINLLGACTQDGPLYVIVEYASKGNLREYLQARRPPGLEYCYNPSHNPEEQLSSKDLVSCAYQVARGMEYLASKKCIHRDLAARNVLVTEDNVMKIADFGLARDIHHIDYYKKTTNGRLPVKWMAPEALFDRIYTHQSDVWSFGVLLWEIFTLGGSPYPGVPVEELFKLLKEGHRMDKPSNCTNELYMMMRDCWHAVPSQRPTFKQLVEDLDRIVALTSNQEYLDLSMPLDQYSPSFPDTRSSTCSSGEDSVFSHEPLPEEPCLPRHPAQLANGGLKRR
# UniProt P22607, whole entry, looked up: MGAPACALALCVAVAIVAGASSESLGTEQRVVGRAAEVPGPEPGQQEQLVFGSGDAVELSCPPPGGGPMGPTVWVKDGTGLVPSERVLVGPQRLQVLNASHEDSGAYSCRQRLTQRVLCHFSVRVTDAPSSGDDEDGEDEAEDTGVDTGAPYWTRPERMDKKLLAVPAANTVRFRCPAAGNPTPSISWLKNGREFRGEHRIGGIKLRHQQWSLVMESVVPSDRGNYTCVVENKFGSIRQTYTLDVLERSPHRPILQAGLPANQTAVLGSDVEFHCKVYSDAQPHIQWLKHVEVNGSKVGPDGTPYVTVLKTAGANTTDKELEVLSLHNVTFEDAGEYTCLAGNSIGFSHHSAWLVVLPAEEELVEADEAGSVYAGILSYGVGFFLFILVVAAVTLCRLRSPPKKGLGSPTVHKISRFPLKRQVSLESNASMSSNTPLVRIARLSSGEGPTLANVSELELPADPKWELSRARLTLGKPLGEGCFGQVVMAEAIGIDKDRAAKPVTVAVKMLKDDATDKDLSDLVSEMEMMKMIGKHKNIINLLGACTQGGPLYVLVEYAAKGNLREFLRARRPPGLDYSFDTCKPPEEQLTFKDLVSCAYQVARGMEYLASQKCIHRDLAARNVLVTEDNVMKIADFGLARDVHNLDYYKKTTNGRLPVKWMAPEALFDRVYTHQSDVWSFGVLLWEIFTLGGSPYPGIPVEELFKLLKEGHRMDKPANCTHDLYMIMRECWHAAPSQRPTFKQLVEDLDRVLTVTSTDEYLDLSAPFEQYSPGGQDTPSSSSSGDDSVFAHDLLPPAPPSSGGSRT
# Counter-ions that a name gives are not always drawn. Some of the results follow. The calls rarely recur for the same compound in another form.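 Kinases, fused to nanoluciferase, were expressed in K562 cells; luminescence was measured every 4 h from 2 to 18 h as percent of control (DMSO = 100%, positive control = 0%). A time point is decreased if signal falls significantly (2 sigma). Hits were called by the authors by a rule that is not shown; the count of time points alone does not decide it.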
# Assays:
# Experiment in all cases: number of time points (of 5) at which kinase-Nluc abundance scored as decreased, DMSO-normalised (count); higher = more persistent destabilization
# Conditions in all cases: K562; 2-18 h
# [1] = molecular target: EGFR_L861Q (UniProt P00533)
# [2] = molecular target: EGFR_T790M (UniProt P00533)
# [3] = molecular target: EPHA2 (UniProt P29317)
# [4] = molecular target: ERBB3 (UniProt P21860)
# [5] = molecular target: ERBB4_R711C (clone: ERBB4_mut) (UniProt Q15303)
# [6] = molecular target: ERN1 (UniProt O75460)
# [7] = molecular target: FGFR1 (UniProt P11362)
# [8] = molecular target: FGFR2 (UniProt P21802)
# [9] = molecular target: FGFR3 (UniProt P22607)
# [10] = molecular target: FGR (UniProt P09769)
SMILES,number of time points [1],number of time points [2],number of time points [3],number of time points [4],number of time points [5],number of time points [6],number of time points [7],number of time points [8],number of time points [9],number of time points [10]
CC(C)(O)c1cc(Nc2cc(Oc3cn(C4CC4)nc3C3CCOCC3)ccn2)ccn1 (10 µM),0,0,0,0,0,0,0,0,0,0
Cc1occ2c1C(=O)c1c(O)ccc(O)c1C2 (2.5 µM),0,0,0,0,0,0,0,0,0,0
CC(C)n1nc(C#Cc2ccccc2)c2c(N)ncnc21 (10 µM),2,0,0,3,0,0,0,3,0,0
Nc1n[nH]c(N)c1N=Nc1ccc(O)cc1 (10 µM),0,0,0,0,0,0,0,0,0,0
NC(=O)c1ccc2nc(-c3ccc(C4(N)CCC4)cc3)c(-c3ccccc3)n2n1 (10 µM),0,0,0,0,0,0,0,0,0,0
Cc1cccc(Cn2nc(C)c3c(NC(=O)c4csc5c(N)ncnc45)cccc32)n1 (10 µM),0,0,0,0,0,0,0,0,0,0
COC(=O)c1cc2c(OC(C)C)cc(OC(C)C)cc2[nH]1 (2.5 µM),0,0,0,0,0,0,0,0,0,0
C[C@@]12CCc3occc3[C@H]1CC[C@@]13C[C@@H](CC[C@H]12)[C@@](O)(CO)C3 [Cafestol] (10 µM),0,0,0,0,0,0,0,0,0,0
COc1cc(OC)c(/C=C/S(=O)(=O)Cc2ccc(OC)c(NCC(=O)O)c2)c(OC)c1 [Rigosertib (sodium)] (10 µM),2,0,0,2,2,0,1,3,0,0
C[C@H]1CNC(=O)c2cnn3ccc(nc23)N[C@H](C)c2cc(F)ccc2O1 [Repotrectinib] (2.5 µM),1,0,0,2,1,0,0,2,0,0
Oc1ccc2ccccc2c1SSc1c(O)ccc2ccccc12 (10 µM),0,0,0,0,0,0,0,0,0,0
CC(=O)NCC(=O)N[C@@H](C)C(=O)N[C@@H](CCC(N)=O)C(=O)N[C@@H](Cc1ccccc1)C(=O)N[C@@H](CO)C(=O)N[C@@H](CCCCN)C(=O)N[C@H](C(=O)N[C@@H](C)C(=O)N[C@@H](C)C(=O)N[C@@H](CCCCN)C(=O)O)[C@@H](C)O (10 µM),0,0,0,0,0,0,0,0,0,0
CCc1nc(C(N)=O)c(Nc2ccc(N3CCC(N4CCN(C)CC4)CC3)c(OC)c2)nc1NC1CCC(OC)CC1 (stereo not given) [EML4-ALK kinase inhibitor 1] (2.5 µM),0,0,1,0,0,0,0,0,0,0
CN(c1ccc(C(F)(F)F)cc1)S(=O)(=O)c1ccc(C(=O)Nc2nc(-c3ccccn3)cs2)cc1 (2.5 µM),0,0,0,0,0,0,0,0,0,0
C[C@]1(O)C[C@@](N)(c2ccc(-c3nc4n(c3-c3ccccc3)COc3ccncc3-4)cc2)C1 [TAS-117 (hydrochloride)] (10 µM),0,0,0,0,0,0,0,0,0,0
C=CC(=O)N1CCC[C@@H](n2c(=O)n(-c3ccc(Oc4ccccc4)cc3)c3c(N)nccc32)C1 [Tolebrutinib] (10 µM),0,0,0,0,0,0,0,0,0,0

SMILES,number of time points [1],number of time points [2],number of time points [3],number of time points [4],number of time points [5],number of time points [6],number of time points [7],number of time points [8],number of time points [9],number of time points [10]
O=C1c2cccc(O)c2C(=O)c2c(O)cccc21 [Danthron] (10 µM),0,0,0,0,0,0,0,0,0,0
O=C(Nc1ncc(SCCN2CCCC2)s1)[C@]1(c2ccc(S(=O)(=O)C3CC3)cc2)C[C@H]1C1CCCCC1 [Globalagliatin] (2.5 µM),0,0,0,0,0,0,0,0,0,0
O=C(c1ccc(NS(=O)(=O)c2cccc3cccnc23)cc1)N1CCN(CC2CC2)CC1 [Mitapivat] (10 µM),0,0,0,0,0,0,0,0,0,0
CN(C)C(=O)c1cc2cnc(Nc3ccc(NC(=O)C4(C(=O)Nc5ccc(F)cc5)CC4)cc3)nc2n1C1CCCC1 (2 µM),0,0,1,1,0,1,0,0,0,0
Cc1ccc(CNC(=O)N2CCC[C@]3(CCN(Cc4ccc(Cl)c(Cl)c4)C3)C2)cc1 (10 µM),0,0,0,0,0,0,0,0,0,0
CC(C)(O)c1cc2nc(-c3cnc(N)nc3)nc(N3CCOCC3)c2s1 (2.5 µM),2,0,0,0,2,1,2,4,4,2
COc1ccc(F)cc1C(=O)NCc1ccc(-c2nn([C@@H](C)C(F)(F)F)c(N)c2C(N)=O)cc1 [Pirtobrutinib] (10 µM),0,0,0,0,1,0,0,0,0,0
CCCCNc1ncc2c(-c3ccc(CN4CCN(C)CC4)cc3)cn([C@H]3CC[C@H](O)CC3)c2n1 [UNC2025 (hydrochloride)] (2.5 µM),2,0,0,0,0,0,0,1,0,0
Cc1ccc(-n2c(-c3ccc(O)cc3O)n[nH]c2=O)cc1 (10 µM),4,2,0,4,3,1,0,3,0,0
C=CC(=O)N1CCN(c2nc(OC[C@@H]3CCCN3C)nc3c2CCN(c2cccc4cccc(C)c24)C3)C[C@@H]1CC#N (2.5 µM),0,0,0,0,0,0,0,0,0,0
C=C[C@H]1[C@H](O[C@@H]2O[C@H](CO)[C@@H](O)[C@H](O)[C@H]2O)OC=C(C(=O)OC)[C@H]1CCOC(=O)c1cc(O)c(O)c(O)c1 [Cornuside] (10 µM),0,0,0,0,0,0,0,0,0,0
O=c1sn(-c2cccc3ccccc23)c(=O)n1Cc1ccccc1 [Tideglusib] (10 µM),0,0,0,0,0,0,0,0,0,0
CNC(=O)Nc1cc(Oc2cncc(C)c2)c(-c2ccc(OCC(C)(C)O)nc2)cn1 (2.5 µM),0,0,0,0,0,0,1,0,0,0
Cc1cc(F)c(Nc2ncnc3cc(OCc4ccccc4)ccc23)cc1O (10 µM),0,0,0,0,0,0,0,0,0,0
CC[C@@H]1CN(C(=O)NCC(F)(F)F)C[C@@H]1c1cnc2cnc3[nH]ccc3n12 [Upadacitinib] (10 µM),0,0,0,0,0,0,0,0,0,0
CNS(=O)(=O)Nc1nccc(Cc2c(C)c3ccc(Oc4ncccn4)cc3oc2=O)c1F (10 µM),3,1,0,3,1,0,0,2,0,0

# Filtered by structure: those above with an NH in an aromatic ring
SMILES,number of time points [1],number of time points [2],number of time points [3],number of time points [4],number of time points [5],number of time points [6],number of time points [7],number of time points [8],number of time points [9],number of time points [10]
Nc1n[nH]c(N)c1N=Nc1ccc(O)cc1 (10 µM),0,0,0,0,0,0,0,0,0,0
COC(=O)c1cc2c(OC(C)C)cc(OC(C)C)cc2[nH]1 (2.5 µM),0,0,0,0,0,0,0,0,0,0
Cc1ccc(-n2c(-c3ccc(O)cc3O)n[nH]c2=O)cc1 (10 µM),4,2,0,4,3,1,0,3,0,0
CC[C@@H]1CN(C(=O)NCC(F)(F)F)C[C@@H]1c1cnc2cnc3[nH]ccc3n12 [Upadacitinib] (10 µM),0,0,0,0,0,0,0,0,0,0
